This is one part of the list. Repeats are few or missing, and single values can be far off.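 Cells were imaged in 1,536-well plates, and nuclei stained with an antibody against cleaved PARP were counted against all DNA-stained nuclei to give the apoptosis fraction. Screening doses were chosen to leave most cells alive, and resting and induced cleaved-PARP levels differ strongly between cell lines.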

The text below walks through data of the supplement of paper PMC4604168 (melanoma cell lines).

The assay relates to CBRC014 (line from a melanoma biopsy). The assay is described as follows: cleaved PARP positive nuclei fraction relative to DMSO control; melanoma cells; higher = more apoptosis. Conditions: library dose: low library concentration; 72 h.
For the compound `CN(NC(=O)CC(=O)NN(C)C(=S)c1ccccc1)C(=S)c1ccccc1` + CCCCCCCCCCCC1=C(O)C(=O)C=C(O)C1=O [Embelin] (first compound 0.006 µM, partner dose 1.2 µM), the “cleaved PARP positive nuclei fraction” value is 477%. For `COc1ccc2c(c1)CCC1C2CCC2(C)C(NCCCCCCN3C(=O)C=CC3=O)CCC12` (stereo unspecified) + O=c1cc(-c2cccc3c2Sc2ccccc2S3)oc(N2CCOCC2)c1 [KU55933] (first compound 0.4 µM, partner dose 1 µM) the value was 98.6%; for `COc1ccc2c(c1)CCC1C2CCC2(C)C(NCCCCCCN3C(=O)C=CC3=O)CCC12` (stereo unspecified) + Oc1nc(-c2ccc(C(F)(F)F)cc2)nc2c1CSCC2 [XAV939] (first compound 0.4 µM, partner dose 2 µM), 99.2%. For `O=C(O)c1ccc(-c2c[nH]c3ncc(-c4ccccc4)cc23)cc1C1CCCC1` + COc1ccc2c(c1)CCC1C2CCC2(C)C(NCCCCCCN3C(=O)C=CC3=O)CCC12 [U73122] (first compound 0.16 µM, partner dose 0.4 µM), the “cleaved PARP positive nuclei fraction” value stood at 105%.

In the case of `CCc1ccc(CCOc2ccc(CC3SC(=O)NC3=O)cc2)nc1` (stereo unspecified) [pioglitazone] + Oc1nc(-c2ccc(C(F)(F)F)cc2)nc2c1CSCC2 [XAV939] (first compound 2 µM, partner dose 2 µM), the “cleaved PARP positive nuclei fraction” value was 102%. Take `COc1cc2c(Oc3ccc4[nH]c(C)cc4c3F)ncnc2cc1OCCCN1CCCC1` [cediranib] + COc1cc2ncnc(Nc3ccc(Oc4ccccc4)cc3)c2cc1OC [SrcI1] (first compound 0.4 µM, partner dose 2 µM): the “cleaved PARP positive nuclei fraction” value is 92.6%. In the case of `N#Cc1c(O)c2c(-c3ccc(-c4ccccc4O)cc3)csc2[nH]c1=O` + COc1cc2ncnc(Nc3ccc(Oc4ccccc4)cc3)c2cc1OC [SrcI1] (first compound 2 µM, partner dose 2 µM), the “cleaved PARP positive nuclei fraction” value stood at 98.9%.

In the case of `CN(NC(=O)CC(=O)NN(C)C(=S)c1ccccc1)C(=S)c1ccccc1` + CC(C)CCN1c2nc(Nc3cc(F)c(O)c(F)c3)ncc2N(C)C(=O)C1C [BID1870] (first compound 0.006 µM, partner dose 0.2 µM), the “cleaved PARP positive nuclei fraction” value was found to be 640%. As for `CCc1ccc(CCOc2ccc(CC3SC(=O)NC3=O)cc2)nc1` (stereo unspecified) [pioglitazone] + N#Cc1c(O)c2c(-c3ccc(-c4ccccc4O)cc3)csc2[nH]c1=O [A769662] (first compound 2 µM, partner dose 2 µM), the “cleaved PARP positive nuclei fraction” value was 127%. Regarding `Oc1nc(-c2ccc(C(F)(F)F)cc2)nc2c1CSCC2` + CCCCCCCCCCCC1=C(O)C(=O)C=C(O)C1=O [Embelin] (first compound 2 µM, partner dose 1.2 µM), the “cleaved PARP positive nuclei fraction” value was 90.2%.

Take `CCN(CC)CCCCNc1ncc2cc(-c3cc(OC)cc(OC)c3)c(NC(=O)NC(C)(C)C)nc2n1` + Cn1cc(/C=C2\C(=O)Nc3cccnc32)c2ccccc21 [GW441756] (first compound 0.1 µM, partner dose 0.4 µM): the “cleaved PARP positive nuclei fraction” value is 94.6%. Regarding `CCc1ccc(CCOc2ccc(CC3SC(=O)NC3=O)cc2)nc1` (stereo unspecified) [pioglitazone] + Cn1cc(/C=C2\C(=O)Nc3cccnc32)c2ccccc21 [GW441756] (first compound 2 µM, partner dose 0.4 µM), the “cleaved PARP positive nuclei fraction” value was found to be 82%. In the case of `COc1ccc(COc2ccc(Cc3cnc(N)nc3N)cc2OC)cc1` + COc1cc2ncnc(Nc3ccc(Oc4ccccc4)cc3)c2cc1OC [SrcI1] (first compound 1 µM, partner dose 2 µM), the “cleaved PARP positive nuclei fraction” value was determined as 94.8%. Turning to `O=S(=O)(c1ccccc1)N(CC(F)(F)F)c1ccc(C(O)(C(F)(F)F)C(F)(F)F)cc1` + COc1cc2ncnc(Nc3ccc(Oc4ccccc4)cc3)c2cc1OC [SrcI1] (first compound 1.4 µM, partner dose 2 µM), the “cleaved PARP positive nuclei fraction” value turned out to be 92.5%.

Take `COc1ccc2c(c1)CCC1C2CCC2(C)C(NCCCCCCN3C(=O)C=CC3=O)CCC12` (stereo unspecified) + Cn1cc(/C=C2\C(=O)Nc3cccnc32)c2ccccc21 [GW441756] (first compound 0.4 µM, partner dose 0.4 µM): the “cleaved PARP positive nuclei fraction” value is 142%. The same measure for `CN(NC(=O)CC(=O)NN(C)C(=S)c1ccccc1)C(=S)c1ccccc1` + Cc1cc([N+](=O)[O-])ccc1NS(=O)(=O)c1cc(Cl)ccc1Cl [FH535] (first compound 0.006 µM, partner dose 1 µM): 1070%; for `N#Cc1c(O)c2c(-c3ccc(-c4ccccc4O)cc3)csc2[nH]c1=O` + c1cc(-c2cnn3cc(-c4ccc(OCCN5CCCCC5)cc4)cnc23)ccn1 [Dorsomorphin] (first compound 2 µM, partner dose 0.4 µM): 344%. In the case of `CCc1ccc(CCOc2ccc(CC3SC(=O)NC3=O)cc2)nc1` (stereo unspecified) [pioglitazone] + COc1ccc(COc2ccc(Cc3cnc(N)nc3N)cc2OC)cc1 [GW2580] (first compound 2 µM, partner dose 1 µM), the “cleaved PARP positive nuclei fraction” value came out at 84.1%. As for `COc1cc2c(Oc3ccc4[nH]c(C)cc4c3F)ncnc2cc1OCCCN1CCCC1` [cediranib] + CCc1ccc(CCOc2ccc(CC3SC(=O)NC3=O)cc2)nc1 [pioglitazone] (first compound 0.4 µM, partner dose 2 µM), the “cleaved PARP positive nuclei fraction” value was 109%. The same measure for `COc1ccc(-c2ccc3c(N4CCOCC4)nc(N4C[C@@H](C)O[C@@H](C)C4)nc3n2)cc1CO` + COc1cc2ncnc(Nc3ccc(Oc4ccccc4)cc3)c2cc1OC [SrcI1] (first compound 0.02 µM, partner dose 2 µM): 102%. For `O=C(O)c1ccc(-c2c[nH]c3ncc(-c4ccccc4)cc23)cc1C1CCCC1` + O=S(=O)(c1ccccc1)N(CC(F)(F)F)c1ccc(C(O)(C(F)(F)F)C(F)(F)F)cc1 [T0901317] (first compound 0.16 µM, partner dose 1.4 µM) the value was 229%; for `COc1ccc(-c2ccc3c(N4CCOCC4)nc(N4C[C@@H](C)O[C@@H](C)C4)nc3n2)cc1CO` + CCN(CC)CCCCNc1ncc2cc(-c3cc(OC)cc(OC)c3)c(NC(=O)NC(C)(C)C)nc2n1 [PD173074] (first compound 0.02 µM, partner dose 0.1 µM), 189%. The same measure for `Oc1cc(-c2nc(-c3ccccc3)[nH]c2-c2ccncc2)ccc1Cl` + O=C1NC(=O)/C(=C/c2ccc(-c3ccc(F)cc3O)o2)S1 [AS252424] (first compound 0.2 µM, partner dose 1 µM): 104%; for `CCc1ccc(CCOc2ccc(CC3SC(=O)NC3=O)cc2)nc1` (stereo unspecified) [pioglitazone] + O=C(Nc1ccccc1)c1cc([N+](=O)[O-])ccc1Cl [GW9662] (first compound 2 µM, partner dose 2 µM): 84.6%; for `COc1ccc2c(c1)CCC1C2CCC2(C)C(NCCCCCCN3C(=O)C=CC3=O)CCC12` (stereo unspecified) + O=C(O)C(=O)Nc1sc2c(c1C(=O)O)CCNC2 [TCS401] (first compound 0.4 µM, partner dose 1.66667 µM): 107%. With `CN(C)S(=O)(=O)c1ccc2c(c1)/C(=C/c1cc3c([nH]1)CCCC3)C(=O)N2` + COc1cc(N2CCC(N3CCN(C)CC3)CC2)ccc1Nc1ncc(Cl)c(Nc2ccccc2S(=O)(=O)C(C)C)n1 [NVP-TAE684] (first compound 0.4 µM, partner dose 0.08 µM), the “cleaved PARP positive nuclei fraction” value was determined as 109%. As for `CN(C)S(=O)(=O)c1ccc2c(c1)/C(=C/c1cc3c([nH]1)CCCC3)C(=O)N2` + N#Cc1c(O)c2c(-c3ccc(-c4ccccc4O)cc3)csc2[nH]c1=O [A769662] (first compound 0.4 µM, partner dose 2 µM), the “cleaved PARP positive nuclei fraction” value was determined as 105%. In the case of `COc1ccc2c(c1)CCC1C2CCC2(C)C(NCCCCCCN3C(=O)C=CC3=O)CCC12` (stereo unspecified) + CC(C)CCN1c2nc(Nc3cc(F)c(O)c(F)c3)ncc2N(C)C(=O)C1C [BID1870] (first compound 0.4 µM, partner dose 0.2 µM), the “cleaved PARP positive nuclei fraction” value was determined as 113%. For `CCc1ccc(CCOc2ccc(CC3SC(=O)NC3=O)cc2)nc1` (stereo unspecified) [pioglitazone] + Oc1cc(-c2nc(-c3ccccc3)[nH]c2-c2ccncc2)ccc1Cl [L779450] (first compound 2 µM, partner dose 0.2 µM) the value was 95.6%.

With `CCc1ccc(CCOc2ccc(CC3SC(=O)NC3=O)cc2)nc1` (stereo unspecified) [pioglitazone] + CC(C)CCN1c2nc(Nc3cc(F)c(O)c(F)c3)ncc2N(C)C(=O)C1C [BID1870] (first compound 2 µM, partner dose 0.2 µM), the “cleaved PARP positive nuclei fraction” value turned out to be 129%. The same measure for `CN(NC(=O)CC(=O)NN(C)C(=S)c1ccccc1)C(=S)c1ccccc1` + O=c1cc(-c2cccc3c2Sc2ccccc2S3)oc(N2CCOCC2)c1 [KU55933] (first compound 0.006 µM, partner dose 1 µM): 447%.

Turning to `O=C(O)c1ccc(-c2c[nH]c3ncc(-c4ccccc4)cc23)cc1C1CCCC1` + Oc1nc(-c2ccc(C(F)(F)F)cc2)nc2c1CSCC2 [XAV939] (first compound 0.16 µM, partner dose 2 µM), the “cleaved PARP positive nuclei fraction” value was 170%. On to `COc1ccc(COc2ccc(Cc3cnc(N)nc3N)cc2OC)cc1` + COc1cc(N2CCC(N3CCN(C)CC3)CC2)ccc1Nc1ncc(Cl)c(Nc2ccccc2S(=O)(=O)C(C)C)n1 [NVP-TAE684] (first compound 1 µM, partner dose 0.08 µM), for which the “cleaved PARP positive nuclei fraction” value was 101%. With `COc1ccc2c(c1)CCC1C2CCC2(C)C(NCCCCCCN3C(=O)C=CC3=O)CCC12` (stereo unspecified) + c1cc(-c2cnn3cc(-c4ccc(OCCN5CCCCC5)cc4)cnc23)ccn1 [Dorsomorphin] (first compound 0.4 µM, partner dose 0.4 µM), the “cleaved PARP positive nuclei fraction” value was 108%.

As to `NCC(=O)Nc1ccc(-n2nc(C(F)(F)F)cc2-c2ccc3c(ccc4ccccc43)c2)cc1` + COc1ccc(COc2ccc(Cc3cnc(N)nc3N)cc2OC)cc1 [GW2580] (first compound 1 µM, partner dose 1 µM), the “cleaved PARP positive nuclei fraction” value was determined as 95.3%. For `COc1cc2ncnc(Nc3ccc(Oc4ccccc4)cc3)c2cc1OC` + COc1cc(N2CCC(N3CCN(C)CC3)CC2)ccc1Nc1ncc(Cl)c(Nc2ccccc2S(=O)(=O)C(C)C)n1 [NVP-TAE684] (first compound 2 µM, partner dose 0.08 µM) the value was 94.3%.
